Measurements as given in doi:10.1101/2020.02.27.968800.
Results are given in words; binding and its absence hold for the method and conditions named. A result given as binding can be weak or reduced; the word gives no strength.

Target: PuBZR1-His (pear (Pyrus ussuriensis))
Assay: pull-down

For “PuACO1-GST (from UniProt A0A4D5XEA0) (enzyme)”, the binding was “binds”.
